PMC7394560, “Post-replicative pairing of sister ter regions in Escherichia coli involves multiple activities of MatP” (Nature Communications, 2020)
No constants are given. Whether binding was seen depends on the method and setting.

Columns and labels:
MatP [1] = molecular target: T1, MatP (Escherichia coli, UniProt P0A8N0 1-150); assay: native gel or EMSA; matS DNA probe with MatP and added purified ZapB, 3 µM of proteins (Supplementary Fig. 9); 10 mM Tris pH 7.5, 125 mM NaCl, 2.5 mM MgCl2, 0.5 mM DTT, 5% glycerol; 30 °C for 30 min; 5% native TGE-PAGE; both purified
T1 sequence: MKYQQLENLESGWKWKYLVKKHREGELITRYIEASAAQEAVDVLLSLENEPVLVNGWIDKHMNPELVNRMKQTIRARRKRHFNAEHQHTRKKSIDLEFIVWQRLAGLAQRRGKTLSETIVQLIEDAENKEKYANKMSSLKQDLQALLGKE

MatP [2] = molecular target: T1, MatP; assay: condition: ZapB from 2 to 20 μM, MatP from 1 to 6 μM; pull-down; biotinylated DNA on streptavidin magnetic beads plus free DNA; MatP 1 to 6 µM with or without ZapB 2 to 20 µM; RB2 (20 mM Tris pH 7.5, 1 mM MgCl2, 150 mM NaCl, 1 mg/mL BSA), RT; eluted with 0.1% SDS; read by agarose gel (DNAf recovered) and SDS-PAGE with anti-His western blot; both purified

B1: ZapB (protein, UniProt P0AF36 1-81)
chain: MTMSLEVFEKLEAKVQQAIDTITLLQMEIEELKEKNNSLSQEVQNAQHQREELERENNHLKEQQNGWQERLQALLGRMEEV
With B1 the binding (MatP [1]) was “no binding (tested: 3 µM of proteins)” and the binding (MatP [2]) was “no binding”.
